Test results from patent publication US20260042850A1.
These are yes or no findings as the source states them, for the method shown. Some binding calls cover weakened binding; strength is not graded here.

Experiments:
[1] = biological target: human C-MET His tagged, monomeric (human) (UniProt P08581); test: SPR Biacore
[2] = biological target: cynomolgus monkey C-MET on stably transfected CHO-K1 cells (cynomolgus monkey); test: flow cytometry, C-MET CHO-K1 cells
[3] = biological target: human C-MET on stably transfected CHO-K1 cells (human) (UniProt P08581); test: flow cytometry, C-MET CHO-K1 cells
[4] = biological target: human C-MET human Fc tagged recombinant protein (human) (UniProt P08581); test: direct titration ELISA on coated human C-MET-Fc, IgG4(S228P), Abs 450 nm
[5] = biological target: cynomolgus monkey C-MET human Fc tagged recombinant protein (cynomolgus monkey); test: direct titration ELISA on coated cyno C-MET-Fc, IgG4(S228P), Abs 450 nm
[6] = biological target: human C-MET His tagged, monomeric (human) (UniProt P08581); test: Alphascreen epitope competition in solution: varied IgG4(S228P) against 224G11 IgG4(S228P) binding to biotinylated human C-MET, CPS
[7] = biological target: cynomolgus monkey C-MET human Fc tagged recombinant protein (cynomolgus monkey); test: direct titration ELISA on C-MET-Fc
[8] = biological target: human C-MET human Fc tagged recombinant protein (human) (UniProt P08581); test: direct titration ELISA on C-MET-Fc

Measured: binding

B1: 04E10 (antibody, IgG4, V domains shown)
VH: QVQLVQSGAEVKKPGASVKVSCKASGYIFTSYTMHWVRQAPGQGLEWMGWIKPNNGSASYAQKFQGRVTMTRDTSTSTVYMELSSLRSEDTAVYYCARSEITTEEDYWGQGTLVTVSS
VL: EIVLTQSPGTLSLSPGERATLSCRASQSVDSYANSYLHWYQQKPGQAPRLLIYRGSTRESGIPDRFSGSGSGTDFTLTISRLEPEDFAVYYCQQSKSEPLTFGGGTKVEIK
binds: [1] | [2] | [3] | [4] | [5] | [6] | [7] | [8]
